Measured values: US10051861B2, “N-arylamidine-substituted trifluoroethyl sulfide derivatives as acaricides and insecticides” (BAYER CROPSCIENCE AG, priority 2011, dated 2018)
At least one read-out could not be matched to a standard name with certainty.

System: greenhouse red spider mite (Tetranychus urticae)
Assay: Tetranychus urticae spray test, OP-resistant (TETRUR), bean leaf disks
Format: in vivo
Settings: application rate 500 g/ha, after 6 days
Description: After 6 days, the effect in % is determined.

Row | SMILES | efficacy (spider mites killed)
1 | CN(C)/C(=N\c1cc(SCC(F)(F)F)c(Cl)cc1Cl)c1ccccc1 [Ia-205] | 90%
2 | N/C(=N\c1cccc(SCC(F)(F)F)c1)c1ccccn1 [Ia-83] | 90%
